Patent publication US20240398920A1 (CYTOMX THERAPEUTICS, published 2024)
No constants are given. Whether binding was seen depends on the method and setting. Some entries that bind do so weakly or less than the wild type.

By UniProt entry, the sequences of proteins in these tests, tags left out. Where a name states a change or a piece, a line headed by the entry shows the natural chain unless it says otherwise. Residues count along the entry.
UniProt P36941, residues 31-435: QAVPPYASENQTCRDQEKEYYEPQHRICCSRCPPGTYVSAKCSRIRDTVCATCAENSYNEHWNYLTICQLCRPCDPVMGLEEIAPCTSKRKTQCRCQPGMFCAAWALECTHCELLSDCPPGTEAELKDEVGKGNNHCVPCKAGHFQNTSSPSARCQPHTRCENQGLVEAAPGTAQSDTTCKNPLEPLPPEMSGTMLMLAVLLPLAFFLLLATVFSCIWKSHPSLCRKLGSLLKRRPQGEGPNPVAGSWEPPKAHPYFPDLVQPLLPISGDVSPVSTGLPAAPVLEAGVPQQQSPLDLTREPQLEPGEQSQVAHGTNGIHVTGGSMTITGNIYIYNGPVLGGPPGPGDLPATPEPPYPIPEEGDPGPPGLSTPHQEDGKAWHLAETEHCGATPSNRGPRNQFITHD
UniProt P50284, residues 31-415: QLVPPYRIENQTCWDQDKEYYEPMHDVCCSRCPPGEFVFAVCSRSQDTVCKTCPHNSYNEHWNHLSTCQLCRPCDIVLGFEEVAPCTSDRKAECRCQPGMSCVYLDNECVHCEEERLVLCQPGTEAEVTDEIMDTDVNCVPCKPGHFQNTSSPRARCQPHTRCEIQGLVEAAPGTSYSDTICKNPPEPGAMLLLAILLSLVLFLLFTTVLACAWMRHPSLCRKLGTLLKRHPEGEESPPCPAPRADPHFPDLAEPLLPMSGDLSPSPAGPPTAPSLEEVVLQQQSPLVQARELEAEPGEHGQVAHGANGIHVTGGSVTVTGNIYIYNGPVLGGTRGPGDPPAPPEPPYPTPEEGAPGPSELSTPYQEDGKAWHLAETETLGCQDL
UniProt O43557: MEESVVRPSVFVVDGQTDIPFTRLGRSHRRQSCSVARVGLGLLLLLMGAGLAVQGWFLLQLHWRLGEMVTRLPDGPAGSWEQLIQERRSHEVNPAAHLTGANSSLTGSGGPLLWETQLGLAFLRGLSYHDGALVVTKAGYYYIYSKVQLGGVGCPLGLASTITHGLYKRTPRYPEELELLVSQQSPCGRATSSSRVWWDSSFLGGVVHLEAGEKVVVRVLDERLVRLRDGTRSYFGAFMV

Experiments:
[1] = target: human lymphotoxin beta receptor (LTbR) (human, UniProt P36941 31-435); assay: flow cytometry on A375 cells, detected with PE-conjugated anti-human CD258 (LIGHT) antibody
[2] = target: mouse lymphotoxin beta receptor (mouse) (UniProt P50284); assay: flow cytometry on MC38 cells, detected with PE-conjugated anti-human CD258 (LIGHT) antibody

ProC1486 + uPa (from UniProt O43557 85-240) (ligand)
binding [1]: binds | binding [2]: binds
